Mtb heat-shock: 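Assay on Mycobacterium tuberculosis, filed only as a heat shock assay from Cornell; the read-out is not stated. The concentration is filed as 10 mM, unlikely as a test dose, so the dose is not known. Direction is inferred from retests: higher values go with stronger inhibition. About 69,000 compounds were tested under these conditions; 1.4% (about 930) showed 50% or more at least once.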
Mtb growth Cornell: 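Whole-cell assay for inhibitors of Mycobacterium tuberculosis growth, labelled Cornell in the record; the read-out is not stated. The concentration is filed as 10 mM, unlikely as a test dose, so the dose is not known. Higher means stronger inhibition (inferred from two other growth screens of the library). Size under these conditions: about 53,000 compounds, about 900 of them at 50% or above in at least one test.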
LdMetRS: 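Methionyl-tRNA synthetase (putative), Leishmania donovani (UniProt E9BF75). Primary screen of methionyl-tRNA synthetase; the read-out is not stated. The test concentration is not given. Values are per cent inhibition. About 68,000 compounds were tested under these conditions; 0.035% (about 24) showed 50% or more at least once.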

Amino acid sequences for entries named in this document (tags omitted).
UniProt E9BF75, entry or part of it: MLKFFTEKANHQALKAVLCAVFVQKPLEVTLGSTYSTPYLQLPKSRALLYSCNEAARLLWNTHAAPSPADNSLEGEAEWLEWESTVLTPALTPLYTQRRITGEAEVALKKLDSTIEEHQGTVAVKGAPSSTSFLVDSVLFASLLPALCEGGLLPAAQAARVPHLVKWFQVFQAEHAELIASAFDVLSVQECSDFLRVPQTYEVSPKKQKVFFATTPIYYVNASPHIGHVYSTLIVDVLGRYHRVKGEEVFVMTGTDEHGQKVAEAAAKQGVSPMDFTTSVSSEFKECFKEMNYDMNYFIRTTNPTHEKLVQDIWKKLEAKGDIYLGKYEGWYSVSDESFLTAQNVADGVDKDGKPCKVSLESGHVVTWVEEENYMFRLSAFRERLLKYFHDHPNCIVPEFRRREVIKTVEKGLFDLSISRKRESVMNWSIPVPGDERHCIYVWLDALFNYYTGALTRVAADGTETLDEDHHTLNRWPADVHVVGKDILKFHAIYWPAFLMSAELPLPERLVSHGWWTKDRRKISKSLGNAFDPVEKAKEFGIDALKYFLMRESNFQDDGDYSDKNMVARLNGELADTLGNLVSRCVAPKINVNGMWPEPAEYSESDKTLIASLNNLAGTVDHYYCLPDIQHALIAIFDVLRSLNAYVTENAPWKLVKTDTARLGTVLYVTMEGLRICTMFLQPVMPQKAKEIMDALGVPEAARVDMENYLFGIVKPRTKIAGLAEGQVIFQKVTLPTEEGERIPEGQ

All values are in %. The record does not define 0% and 100%; most values in the screen are far below 50% and negative numbers occur (in some assays of this library far below -100). This is an unselected part of the compounds tested.

{"compound": "COc1cc2c(cc1CNC(=O)Cc1cc(C)on1)OC(C)C2", "stereo": "centres undefined", "Mtb heat-shock": -0.5558, "LdMetRS": 8.871}
{"compound": "C=C(C)CN1CCCC(NS(C)(=O)=O)C1", "stereo": "centres undefined", "Mtb heat-shock": 3.932, "Mtb growth Cornell": -7.54, "LdMetRS": 10.59}
{"compound": "Fc1cnc(N2C[C@@H]3C[C@@H](c4nc(C5CC5)cs4)O[C@@H]3C2)nc1", "LdMetRS": 16.94}
{"compound": "CCc1nc(C2CCCN2c2ncc(C(N)=O)cc2Cl)no1", "stereo": "centres undefined", "Mtb heat-shock": 13.65, "Mtb growth Cornell": 3.873, "LdMetRS": 4.348}
{"compound": "CC(C)c1nc(/C=C/c2cnn(-c3ccc(Cl)cc3)c2)ncc1C(=O)O", "Mtb heat-shock": -14.78, "Mtb growth Cornell": -4.898, "LdMetRS": 10.56}
{"compound": "Cc1nc(CN2CCCC(N(C)Cc3nc(C)c(C)o3)C2)no1", "stereo": "centres undefined", "Mtb heat-shock": -4.992, "Mtb growth Cornell": 1.546, "LdMetRS": 12.71}
{"compound": "COC(=O)c1cccc(S(=O)(=O)NC(=O)c2ccccc2F)c1", "Mtb heat-shock": 8.996, "LdMetRS": -0.8219}
{"compound": "CC(=O)N1CC(C(=O)NC(C)c2cnn(C)c2C)C1", "stereo": "centres undefined", "Mtb heat-shock": -9.928, "Mtb growth Cornell": 12.75, "LdMetRS": 9.884}
{"compound": "O=C(O)C(F)(F)F.[H][C@@]12CN(Cc3cccs3)C[C@]1([H])C(=O)N(CC)C2", "Mtb heat-shock": -4.19}
{"compound": "O=c1[nH]ccn1CCCN1CC=C(c2cnn(-c3ccccc3)c2)CC1", "Mtb heat-shock": -20.13, "Mtb growth Cornell": 25.92, "LdMetRS": 13.97}
{"compound": "Cc1cnn(C2CCCN(C(=O)C3=NN(C)C(=O)CC3)C2)c1", "stereo": "centres undefined", "Mtb heat-shock": -14.33, "Mtb growth Cornell": -16.24, "LdMetRS": 9.15}
{"compound": "Cc1cc(NC2CCc3ncnn3C2)n2ncnc2n1", "stereo": "centres undefined", "Mtb heat-shock": -28.14, "Mtb growth Cornell": -11.98, "LdMetRS": 14.37}
{"compound": "COc1ccc(CN2CCC3(CC(C(=O)NCC(C)C)=NO3)C2)cc1", "stereo": "centres undefined", "Mtb heat-shock": 21.92, "Mtb growth Cornell": 19.34, "LdMetRS": 6.011}
{"compound": "COCCN1C[C@H]2CN(C(=O)c3ccno3)CCN2C1=O", "LdMetRS": 5.495}
{"compound": "O=C(O)C(F)(F)F.O=C(O)C(F)(F)F.[H][C@@]12OCCN(C3CCCC3)[C@@]1([H])CC[C@H]2Oc1cccnc1", "Mtb heat-shock": -35.82, "Mtb growth Cornell": 3.798}
{"compound": "Cc1nc(C(C)C)ncc1C(=O)N1CCC(c2ccccc2C(=O)O)C1", "stereo": "centres undefined", "Mtb heat-shock": -1.605, "Mtb growth Cornell": 6.114, "LdMetRS": 13.07}
{"compound": "Cc1cc(N(C)Cc2ncc[nH]2)nc(-c2ccccc2)n1", "Mtb heat-shock": 15.23, "Mtb growth Cornell": 11.99, "LdMetRS": 9.375}
{"compound": "COCCN1CCC2(CCCN(c3ncccn3)C2)C1", "stereo": "centres undefined", "LdMetRS": 6.62}
{"compound": "O=C(NCc1cncc2c1CCN(CC1CCOC1)C2)c1ccno1", "stereo": "centres undefined", "LdMetRS": 7.519}
{"compound": "CSCC(=O)NC1CC(=O)N(CCc2ccccc2)C1", "stereo": "centres undefined", "Mtb heat-shock": 15.07, "Mtb growth Cornell": 28.16, "LdMetRS": 12.63}
{"compound": "CC(C)(C(N)=O)N1CCN(C(=O)c2ccn(-c3cccc(Cl)c3)n2)CC1", "Mtb heat-shock": -3.712, "LdMetRS": 12.05}
{"compound": "Cc1nn(C)c(Cl)c1C1CCCN1C(=O)c1csnn1", "stereo": "centres undefined", "Mtb heat-shock": -2.736, "Mtb growth Cornell": -17.69, "LdMetRS": 3.419}
{"compound": "COCc1ccc(C(=O)N2CC[C@H](O)[C@@H](n3ccnc3)CC2)cc1", "Mtb heat-shock": 0.8566, "Mtb growth Cornell": 18.64, "LdMetRS": 16.38}
{"compound": "O=C(O)C(F)(F)F.[H][C@@]12CCN(C(=O)c3ccccn3)[C@]1([H])CCC(=O)N2Cc1csc(C)n1", "Mtb heat-shock": -6.48, "Mtb growth Cornell": -4.234}
{"compound": "COc1cccc(CNC(=O)C(C)N2CC(n3nc(C)cc3C)C2)c1", "stereo": "centres undefined", "Mtb heat-shock": -0.7841, "Mtb growth Cornell": 8.353, "LdMetRS": 17.33}
{"compound": "CCC(CC)(CC(=O)OC)NC(=O)Nc1nnc(-c2ccccn2)s1", "Mtb heat-shock": -19.88, "Mtb growth Cornell": 7.304, "LdMetRS": 12.15}
{"compound": "CNC(=O)NCC1CCC2(CCN(C(=O)c3cccnc3)CC2)CO1.O=C(O)C(F)(F)F", "stereo": "centres undefined", "Mtb heat-shock": 9.868, "Mtb growth Cornell": 2.634}
{"compound": "O=C1C(NS(=O)(=O)c2cc(F)cc(F)c2)CCN1Cc1ccccc1", "stereo": "centres undefined", "Mtb heat-shock": 12.05, "Mtb growth Cornell": 30.79, "LdMetRS": 4.225}
{"compound": "COCC1CN(Cc2ccsc2)Cc2nn(C)cc21", "stereo": "centres undefined", "LdMetRS": 1.288}
{"compound": "CCN1CCN(C)C(=O)C12CCN(Cc1ccsc1)CC2", "LdMetRS": 8.889}
{"compound": "CS(=O)(=O)N1CCCc2sc(C(=O)NC3CC3)nc21", "Mtb heat-shock": 13.66, "Mtb growth Cornell": 11.2, "LdMetRS": 15.07}
{"compound": "CO[C@@H]1CCC[C@@H](NC(=O)C(C)(C)c2cccc(F)c2)[C@H]1O", "Mtb heat-shock": -14.82, "Mtb growth Cornell": 26.31, "LdMetRS": 14.69}

The values are deposited in ChEMBL (CHEMBL3988442, “University of Dundee, Small-Polar-MMV Screening Library” (2021)).